From publication PMC10187114
These are yes or no findings as the source states them, for the method shown. Binding seen in cells or lysates may run through a third protein. These calls come from enrichment with a bait or labelling near it, and not all partners need be listed.

The chains behind the UniProt entries cited, without tags or fusion partners. Residues count along the entry.
UniProt Q8N668: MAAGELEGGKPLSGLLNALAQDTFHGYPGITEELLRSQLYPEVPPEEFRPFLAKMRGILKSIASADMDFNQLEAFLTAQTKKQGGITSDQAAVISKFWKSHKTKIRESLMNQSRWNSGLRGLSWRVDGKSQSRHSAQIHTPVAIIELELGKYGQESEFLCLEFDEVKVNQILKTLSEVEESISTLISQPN
UniProt Q9Y6G5, residues 12-202: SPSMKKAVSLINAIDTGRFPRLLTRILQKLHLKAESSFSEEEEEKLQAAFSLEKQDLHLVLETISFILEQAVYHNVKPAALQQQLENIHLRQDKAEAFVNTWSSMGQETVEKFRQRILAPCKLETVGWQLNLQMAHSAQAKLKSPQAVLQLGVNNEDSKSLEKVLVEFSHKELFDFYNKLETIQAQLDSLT
UniProt Q86X83: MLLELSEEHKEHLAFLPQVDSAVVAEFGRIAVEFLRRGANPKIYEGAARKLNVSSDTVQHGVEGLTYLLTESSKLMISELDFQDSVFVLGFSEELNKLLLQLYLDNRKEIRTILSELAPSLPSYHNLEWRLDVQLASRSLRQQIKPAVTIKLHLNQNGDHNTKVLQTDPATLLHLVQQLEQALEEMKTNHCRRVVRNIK
UniProt Q7Z4G1: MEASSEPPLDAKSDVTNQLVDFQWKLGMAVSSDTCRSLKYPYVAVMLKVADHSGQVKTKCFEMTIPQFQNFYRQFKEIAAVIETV
UniProt Q86VX2: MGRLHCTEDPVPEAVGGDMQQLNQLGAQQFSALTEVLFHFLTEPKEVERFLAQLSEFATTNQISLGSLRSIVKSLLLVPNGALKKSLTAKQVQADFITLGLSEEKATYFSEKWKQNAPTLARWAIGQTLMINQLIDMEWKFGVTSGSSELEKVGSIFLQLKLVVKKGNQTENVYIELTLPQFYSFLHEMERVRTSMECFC
UniProt Q9NX08: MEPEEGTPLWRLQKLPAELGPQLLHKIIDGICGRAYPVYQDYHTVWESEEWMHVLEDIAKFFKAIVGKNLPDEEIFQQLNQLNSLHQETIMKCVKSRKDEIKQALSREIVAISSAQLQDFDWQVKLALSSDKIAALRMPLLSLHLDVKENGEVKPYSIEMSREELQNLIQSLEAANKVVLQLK
UniProt Q9H0A8: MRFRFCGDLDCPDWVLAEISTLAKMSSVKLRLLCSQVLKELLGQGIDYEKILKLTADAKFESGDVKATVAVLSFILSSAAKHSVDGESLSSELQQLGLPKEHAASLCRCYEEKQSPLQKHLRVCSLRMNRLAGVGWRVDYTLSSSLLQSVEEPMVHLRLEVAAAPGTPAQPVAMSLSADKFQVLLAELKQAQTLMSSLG

Experiments:
Assay in all cases: affinity purification with mass spectrometry; ten human COMMD proteins co-expressed in E. coli, one His-tagged; Talon, gel filtration, anion exchange, peptide mass spectrometry
COMMD1-His (human) = COMMD1-His (human) (UniProt Q8N668)
COMMD10-His (human) = COMMD10-His (human) (UniProt Q9Y6G5)
COMMD2-His (human) = COMMD2-His (human) (UniProt Q86X83)

Row | binding (COMMD1-His (human)) | binding (COMMD10-His (human)) | binding (COMMD2-His (human)) | Substance
1 | binds | – | – | COMMD6 (E. coli) (from UniProt Q7Z4G1 1-85)
2 | – | binds | – | COMMD7 (E. coli) (from UniProt Q86VX2 1-200)
3 | binds | – | binds | COMMD8 (E. coli) (from UniProt Q9NX08 1-183)
4 | binds | – | binds | COMMD4 (E. coli) (from UniProt Q9H0A8 1-199)
